Primary screen of a compound library

Amino acid sequences for entries named in this document (tags omitted).
UniProt E9BF75, entry or part of it: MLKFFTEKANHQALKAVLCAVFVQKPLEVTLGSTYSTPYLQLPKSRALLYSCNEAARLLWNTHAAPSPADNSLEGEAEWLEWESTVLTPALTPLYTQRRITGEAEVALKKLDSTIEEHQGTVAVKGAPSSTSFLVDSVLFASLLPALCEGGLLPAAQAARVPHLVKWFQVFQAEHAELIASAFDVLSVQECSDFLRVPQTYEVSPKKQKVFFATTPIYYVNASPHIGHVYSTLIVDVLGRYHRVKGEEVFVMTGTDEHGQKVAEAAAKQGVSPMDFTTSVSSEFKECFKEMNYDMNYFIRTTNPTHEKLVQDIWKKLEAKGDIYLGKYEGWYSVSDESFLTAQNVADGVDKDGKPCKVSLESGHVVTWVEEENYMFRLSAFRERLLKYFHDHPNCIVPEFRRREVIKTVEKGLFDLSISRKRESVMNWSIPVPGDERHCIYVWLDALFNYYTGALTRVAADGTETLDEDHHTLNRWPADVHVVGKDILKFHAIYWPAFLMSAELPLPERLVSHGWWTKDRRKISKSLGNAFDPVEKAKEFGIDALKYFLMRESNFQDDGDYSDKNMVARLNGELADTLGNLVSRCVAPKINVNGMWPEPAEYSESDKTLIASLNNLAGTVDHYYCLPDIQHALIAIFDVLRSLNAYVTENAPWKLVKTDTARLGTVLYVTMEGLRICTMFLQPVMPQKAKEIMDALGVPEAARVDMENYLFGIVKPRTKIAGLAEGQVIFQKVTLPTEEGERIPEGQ

Data taken from ChEMBL document CHEMBL3988442, “University of Dundee, Small-Polar-MMV Screening Library” (2021).

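Primary screen of methionyl-tRNA synthetase; the read-out is not stated. Target: Methionyl-tRNA synthetase (putative), Leishmania donovani (UniProt E9BF75). The test concentration is not given. The values are filed as inhibition. About 68,000 compounds were tested under these conditions; 0.035% (about 24) showed 50% or more at least once.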

All values are in %. The record does not define 0% and 100%; most values in the screen are far below 50% and negative numbers occur (in some assays of this library far below -100). This is an unselected part of the compounds tested.

Compound	Inhibition
CN(C)CCN1CCCC12CCCN(Cc1ccco1)C2 (stereo not shown)	1.73%
CC(NC(=O)CCc1nc(C(C)(C)C)no1)c1nnc2n1CCC2 (stereo not shown)	9.253%
CCS(=O)(=O)N1CCC2(CC1)CN(C(=O)N(C)C)Cc1ccccc12	2.222%
O=C(CCc1ccccc1)N1C[C@@H]2CN(Cc3ccoc3)CCO[C@@H]2C1	13.74%
CCN(CC)S(=O)(=O)NC1CCN(c2ccc(OC)cc2)CC1	12.57%
CCc1nnc2n1CCN(C(=O)COCCc1ccccc1)C2	18.11%
N#Cc1ccc(N2CCCN(CC(=O)N3CCOCC3)CC2)cc1	3.591%
Cc1cc(N2CCOCC2)nc(N(C)CCO)c1C#N	12.33%
CN(C(=O)c1ccncc1F)c1ccccc1S(C)(=O)=O	14.81%
CCOCC1CN(C(=O)c2cscn2)Cc2cn(C)nc21 (stereo not shown)	2.667%
CN1CCC(c2n[nH]c3ncccc23)C1 (stereo not shown)	12.9%
O=S(=O)(c1cn[nH]c1)N1CCC(O)(CN2CCOCC2)C1 (stereo not shown)	9.302%
O=C(NC1CCC1)[C@H]1CCS(=O)(=O)[C@@H]2CN(CCc3ccccc3)C[C@H]12	5.236%
Cc1cnc(C)c(N2CCN(Cc3ccc(C)c(C)c3)CC2)n1	15.69%
CN(C)C(=O)CN1CCc2ncnc(NC3CCC3)c2CC1	5.195%
Cn1c(C(=O)N2CCC(CC(N)=O)CC2)c(Cl)c2ccccc21	0.3497%
Cn1nc(C(=O)N2CCCCCC2)cc1NC(=O)c1ccccc1	12.91%
CCn1c(CN(C)C)nnc1C1CCN(Cc2ccccn2)CC1	4.682%
Cc1noc([C@]23COC[C@H]2CN(S(=O)(=O)N(C)C)C3)n1	15.29%
Cc1ccc2c(n1)N(Cc1cccnc1)CCN(C(=O)C1CCC1)C2	9.013%
CN1C(=O)[C@H]2CC[C@@H]1CN(C(=O)c1nnc3n1CCCCC3)C2	15.81%
CCNC(=O)CN1CCCN(C(=O)C2CCCc3[nH]ncc32)CC1 (stereo not shown)	5.576%
CN1CCCC1c1cncc(C(=O)NCc2ccccc2)n1 (stereo not shown)	17.55%
CCc1nc(C(=O)N2CC(C(C)C)Nc3ccccc32)c[nH]1 (stereo not shown)	15.82%
CC(=O)N1CCC(c2cncc(N3CCC(O)C3)n2)CC1 (stereo not shown)	17.02%
CCC1c2ccsc2CCN1C(=O)NCc1ccnc(N(C)C)c1 (stereo not shown)	19.2%
O=C(COCc1ccccc1)N1CCC(OCc2cccnc2)CC1	6.667%
Cc1nnc2n1CCN(CCCS(=O)(=O)c1ccccc1)C2	16.27%
CN(C)CCOCC1CN(C(=O)N2CCCC2)Cc2ccnn2C1 (stereo not shown)	16.3%
COCC1Cn2nnc(-c3cnn(C)c3)c2CN1Cc1ccsc1 (stereo not shown)	11.22%
CS(=O)(=O)NC[C@H]1OC[C@@H]2CCN(C(=O)c3cccnc3)C[C@@H]21	18.52%
CNc1cc(N2CCCC2CNCc2ccc(C)o2)ncn1 (stereo not shown)	14.44%
O=C(CN1CCCNC1=O)N1CCCC(c2nccs2)C1 (stereo not shown)	6.15%
CO[C@H]1CO[C@@]2(CCCN(C(=O)N(C)C)C2)C1	9.302%
COc1ccc(CNC(=O)Nc2ccc(N3CCCC3)nc2)cc1O	21.78%
NC(=O)CN1CCCC(Cc2ccc(N)nn2)C1 (stereo not shown)	-1.286%
CCNc1nc2c(s1)C(=O)CN(C(=O)NCc1ccccc1)C2	9.466%
FC(F)(F)CCc1ccnc(N[C@H]2CC[C@H](n3cnnc3)CC2)n1	17.83%
Cn1ccc(C(=O)N2CCC(c3cc(CCO)n(C)n3)C2)n1 (stereo not shown)	6.667%
Cc1noc(C)c1CC(=O)N1CCCC(Cc2ccccn2)C1 (stereo not shown)	10.25%
CC(C)(O)CN1CCN(C(=O)c2cccc3[nH]ncc23)CC1	6.789%
NC(=O)N1CC[C@H](O)[C@@H]1Cc1ccccc1	6.731%
CN1CCCN(C(=O)c2cc(CN(C)CCc3ccccc3)on2)CC1	19.88%
Cc1nc(C(C)NC(=O)c2cn(C/C=C/c3ccccc3)nn2)n[nH]1 (stereo not shown)	18.23%
COc1cccc(OC2CN(C(=O)C3CCCN(C(=O)N(C)C)C3)C2)c1 (stereo not shown)	16.03%
Cc1cn(CC(=O)N(C)Cc2cccc3ncccc23)c(=O)[nH]c1=O	-0.3484%
NC(=O)CN1CCC(c2cccc(Oc3ccccc3)n2)CC1	6.962%
O=C(Nc1nnc(C(F)F)s1)NC(CCO)c1cccs1 (stereo not shown)	13.26%
CN(C)C(=O)CCCNC(=O)C(c1cccc(F)c1)N(C)C (stereo not shown)	6.159%
CNC(=O)CN1CCCC12CCN(C(=O)c1ccc(F)cc1)CC2	4.377%
COC(=O)[C@@H]1C[C@@H](NC(=O)CN2C(=O)N(C)Cc3ccccc32)CN1C	17.25%
O=C(N1CCCC1)N1CCC2(CCCN(CCOc3ccccc3)C2)C1 (stereo not shown)	6.397%
CCN(CC)CCNC(=O)CCc1c(C)nn(-c2ccccc2Cl)c1C	4.167%
CC1(C)OCC(CNC(=O)c2cnn(-c3cccc(Cl)c3Cl)c2N)O1 (stereo not shown)	7.5%
Cc1cc(C(=O)N(C)Cc2ccccc2OCC(C)C)cc(=O)[nH]1	0%
COc1ccnc(N2CCC(OCCN3CCCCC3)C2)n1 (stereo not shown)	3.542%
CN1CC(C(=O)N2CCN(c3cccc(Cl)c3)C(=O)C2)NC1=O (stereo not shown)	15.32%
Cc1ccc(-c2nccn2-c2ccc(OC3CCN(C)CC3)cc2)o1	3.916%
COc1cccc2c1N(Cc1noc(C(C)(C)C)n1)CCC2	10.99%
O=C(NCc1ccccc1F)N1CCCCC1C1OCCO1 (stereo not shown)	9.051%
CSCCC(=O)N1CCCC(c2ncc[nH]2)C1 (stereo not shown)	16.86%
CC(C)(C)CCN1CCC(c2nnc(Cn3cccn3)n2C2CC2)CC1	8.782%
CCOC(=O)COc1ccc(C(C)=O)c(O)c1	4.595%
CCCS(=O)(=O)NCCc1ncc(CC)s1	8.602%
Cc1ccnc(N2CCCC(c3nccn3C(C)C)C2)n1 (stereo not shown)	8.38%
O=S(=O)(NCC1CCN(c2cnccn2)CC1)c1ccc(F)c(Cl)c1	17%
CC(C)(C)c1oc(C(N)=O)cc1CN1CCCCC(N)C1 (stereo not shown)	8.696%
CCCc1c(C2CCOC(C)(C)C2)nc(N)c(C#N)c1-c1cnn(C)c1 (stereo not shown)	7.163%
CSCCC1c2nc[nH]c2CCN1Cc1ccccc1C(F)(F)F (stereo not shown)	22.87%
O=C(NCc1ccccc1-n1cccn1)N1CCC(N2CCCC2)C1 (stereo not shown)	18.21%
CCC/N=c1/c(NC(=O)NCCOC)c(O)oc2ccccc12	-25.56%
CSCC(=O)N1CCC(c2nccn2Cc2cscn2)CC1	2.007%
Cc1cc(C)n(CC2CN(CC(=O)NC(C3CC3)C3CC3)CCO2)n1 (stereo not shown)	20.23%
COC(=O)CC1CCN(C(=O)c2ccccc2-n2nnnc2C)CC1	8.639%
CC(=O)NC1CCN(c2nc(N)nc3c2CCCC3)C1 (stereo not shown)	4.53%
NC(=O)C1CCN(C(=O)NCc2ccc3c(c2)OCCO3)CC1	11.15%
O=C(N1CCOCC1)N1CCc2[nH]nc(COc3cccc(Cl)c3)c2C1	3.194%
Cc1ccc(C(=O)NC(C)Cn2cccn2)c(=O)[nH]1 (stereo not shown)	1.465%
CN(Cc1ccncc1)C(=O)NC1CCCN(c2ncccn2)C1 (stereo not shown)	16.94%
CC(NS(C)(=O)=O)C(=O)N(C)Cc1csc(-c2cccs2)n1 (stereo not shown)	7.904%
Cc1ccccc1OCC1CCCN(C(=O)Cc2c[nH]c(=O)[nH]c2=O)C1 (stereo not shown)	0.6849%
CCC(=O)Nc1nnc(CCOc2ccccc2)s1	-23.87%
c1ccc(-n2cnnc2CCCN2CCOCC2)cc1	8.75%
O=C([C@@H]1CC[C@@H]2[C@@H](CCN2Cc2cccc(F)c2)O1)N1CCCCO1	3.766%
O=C(N[C@@H]1CCN(Cc2cccc3nonc23)C[C@H]1O)c1cccnc1	13.88%
CC1=C(c2ccc(F)cc2)S(=O)(=O)N=C1N1CCc2ccccc21	5.634%
CC(NC(=O)N1CCN(c2ccccc2)CC1)c1nncn1C (stereo not shown)	9.091%
O=C(c1cnco1)N1C[C@@H]2CC[C@H](Oc3ccccc3F)[C@@H]2C1	5.137%

7 of the entries, repeated:

For CN(C)C(=O)CN1CCc2ncnc(NC3CCC3)c2CC1 the result was 5.195%.
For Cn1c(C(=O)N2CCC(CC(N)=O)CC2)c(Cl)c2ccccc21 the result was 0.3497%.
For O=C(N[C@@H]1CCN(Cc2cccc3nonc23)C[C@H]1O)c1cccnc1 the result was 13.88%.
For CC(NS(C)(=O)=O)C(=O)N(C)Cc1csc(-c2cccs2)n1 (stereo not shown) the result was 7.904%.
For CN1CCCN(C(=O)c2cc(CN(C)CCc3ccccc3)on2)CC1 the result was 19.88%.
For CN(C)C(=O)CCCNC(=O)C(c1cccc(F)c1)N(C)C (stereo not shown) the result was 6.159%.
For O=S(=O)(c1cn[nH]c1)N1CCC(O)(CN2CCOCC2)C1 (stereo not shown) the result was 9.302%.